Tested on: human platelets
Assay: Loading of platelets with trehalose (anthrone quantification)
Format: cell-based
Details: for loading efficiency of trehalose: 50 mM external trehalose
Procedure: Washing of Platelets. Platelet concentrations were obtained from the Sacramento blood center or from volunteers in our laboratory. Platelet rich plasma was centrifuged for 8 minutes at 320×g to remove erythrocytes and leukocytes. The supernatant was pelleted and washed two times (480×g for 22 minutes, 480×g for 15 minutes) in buffer A (100 MM NaCl, 10 MM KCl, 10 mM EGTA, 10 mM imidazole, pH 6.8). Platelet counts were obtained on a Coulter counter T890 (Coulter, Inc., Miami, Fla.).
Loading of Platelets with Trehalose. Washed platelets in a concentration of 1-2 10^9 platelets/ml were incubated at various temperatures in the presence of 1-20 mg/ml trehalose. Incubation temperatures were chosen from 4° C. to 37° C. Incubation times were varied from 0.5 to 4 hours. After incubation the platelet solutions were washed in buffer A two times (by centrifugation at 14,000 RPM for 20 s in a table centrifuge). Platelet counts were obtained on a coulter counter. Platelets were pelleted (45 S at 14,000 RPM) and sugars were extracted from the pellet using 80% methanol. The samples were heated for 30 minutes at 80° C. The methanol was 10 evaporated with nitrogen, and the samples were kept dry and redissolved in H2O prior to analysis. The amount of trehalose in the platelets was quantified using the anthrone reaction (Umbreit et al., Mamometric and Biochemical Techniques, 5th Edition, 1972). Samples were redissolved in 3 ml H2O and 6 ml anthrone reagents (2 g anthrone dissolved in 10M sulfuric acid). After vortex mixing, the samples were placed in a boiling water bath for 3 minutes. Then the samples were cooled on ice and the absorbance was measured at 620 nm on a Perkin Elmer spectrophotometer. The amount of platelet associated trehalose was determined using a standard curve of trehalose.
Quantification of Trehalose and LYCH Concentration. Uptake was calculated for each sample as micrograms of trehalose or LYCH per platelet. The internal trehalose concentration was calculated assuming a platelet radius of 1.2 μm and by assuming that 50% of the platelet volume is taken up by the cytosol (rest is membranes). The loading efficiency was determined from the cytosolic trehalose or LYCH concentration and the concentration in the loading buffer.

`OC[C@H]1O[C@H](O[C@H]2O[C@H](CO)[C@@H](O)[C@H](O)[C@H]2O)[C@H](O)[C@@H](O)[C@@H]1O` [trehalose] was tested, and the “external trehalose giving highest internal trehalose concentration” value was 50 mM, the “loading efficiency of trehalose” value (4 hour incubation, 22° C. and below) was “below 5%” and the “loading efficiency of trehalose” value (4 hours, 37° C.) was 35%. It also gave a cytosolic concentration (loading efficiency 61%, external concentration 25 mM) of 15 mM and a loading efficiency (time course at 37° C., 4 hours incubation (external 25 mM)) of 61%.

— patent US20060223050A1, “Therapeutic platelets and methods” (The Regents of the University of California Office of …, priority 2003, published 2006)
